# Publication PMC13070255
# Results are given in words; binding and its absence hold for the method and conditions named. Some results given as binding are weak or reduced against the parent protein; the word gives no strength.
# T1: MERTK on THP1-derived macrophages (human (endogenous in THP1)) (UniProt Q12866)
# T1 sequence: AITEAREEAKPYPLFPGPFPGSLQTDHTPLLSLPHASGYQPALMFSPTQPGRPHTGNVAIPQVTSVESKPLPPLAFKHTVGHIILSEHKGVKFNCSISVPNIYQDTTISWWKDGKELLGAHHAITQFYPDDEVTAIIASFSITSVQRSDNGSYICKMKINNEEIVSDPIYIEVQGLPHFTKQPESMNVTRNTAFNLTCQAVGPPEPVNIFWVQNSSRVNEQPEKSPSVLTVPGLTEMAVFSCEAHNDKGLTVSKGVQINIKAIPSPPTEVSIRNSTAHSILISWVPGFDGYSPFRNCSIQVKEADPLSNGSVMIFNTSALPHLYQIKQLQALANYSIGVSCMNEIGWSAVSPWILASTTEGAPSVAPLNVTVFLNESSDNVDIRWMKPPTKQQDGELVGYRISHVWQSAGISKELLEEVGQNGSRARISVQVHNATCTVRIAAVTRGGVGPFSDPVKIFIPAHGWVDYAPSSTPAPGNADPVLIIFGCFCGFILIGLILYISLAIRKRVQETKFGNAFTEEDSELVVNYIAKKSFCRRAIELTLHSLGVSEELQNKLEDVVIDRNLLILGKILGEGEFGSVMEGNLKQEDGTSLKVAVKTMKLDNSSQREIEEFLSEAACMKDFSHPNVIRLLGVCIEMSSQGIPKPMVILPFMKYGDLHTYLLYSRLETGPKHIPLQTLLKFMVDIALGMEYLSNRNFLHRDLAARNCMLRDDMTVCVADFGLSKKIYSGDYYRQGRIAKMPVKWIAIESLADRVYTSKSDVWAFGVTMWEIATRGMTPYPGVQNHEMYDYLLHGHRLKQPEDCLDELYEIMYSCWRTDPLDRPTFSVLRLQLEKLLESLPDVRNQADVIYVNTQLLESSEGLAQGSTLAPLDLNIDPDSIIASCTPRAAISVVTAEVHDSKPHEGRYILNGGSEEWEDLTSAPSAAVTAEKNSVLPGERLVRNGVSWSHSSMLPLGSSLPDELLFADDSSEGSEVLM
# Target: T1, MERTK on THP1-derived macrophages (human (endogenous in THP1))
# Assay: binding of opsonised apoptotic cell mimics (beads) to cells, microscopy; beads opsonised with Gas6 and/or sCD93, or with ProS and MFG-E8, centrifuged onto PMA-differentiated THP1 macrophages, 60 min at 37°C; bound beads per macrophage counted; MERTK, αx or β2 depleted by siRNA as controls; only the binder purified
binder,measurement,value
"Gas6 (recombinant) (ligand, UniProt Q14393 31-678) ALLPAREATQFLRPRQRRAFQVFEEAKQGHLERECVEELCSREEAREVFENDPETDYFYPRYLDCINKYGSPYTKNSGFATCVQNLPDQCTPNPCDRKGTQACQDLMGNFFCLCKAGWGGRLCDKDVNECSQENGGCLQICHNKPGSFHCSCHSGFELSSDGRTCQDIDECADSEACGEARCKNLPGSYSCLCDEGFAYSSQEKACRDVDECLQGRCEQVCVNSPGSYTCHCDGRGGLKLSQDMDTCEDILPCVPFSVAKSVKSLYLGRMFSGTPVIRLRFKRLQPTRLVAEFDFRTFDPEGILLFAGGHQDSTWIVLALRAGRLELQLRYNGVGRVTSSGPVINHGMWQTISVEELARNLVIKVNRDAVMKIAVAGDLFQPERGLYHLNLTVGGIPFHEKDLVQPINPRLDGCMRSWNWLNGEDTTIQETVKVNTRMQCFSVTERGSFYPGSGFAFYSLDYMRTPLDVGTESTWEVEVVAHIRPAADTGVLFALWAPDLRAVPLSVALVDYHSTKKLKKQLVVLAVEHTALALMEIKVCDGQEHVVTVSLRDGEATLEVDGTRGQSEVSAAQLQERLAVLERHLRSPVLTFAGGLPDVPVTSAPVTAFYRGCMTLEVNRRLLDLDEAAYKHSDITAHSCPPVEPAAA",binding,binds
"Protein S (ligand, UniProt P07225 42-676) ANSLLEETKQGNLERECIEELCNKEEAREVFENDPETDYFYPKYLVCLRSFQTGLFTAARQSTNAYPDLRSCVNAIPDQCSPLPCNEDGYMSCKDGKASFTCTCKPGWQGEKCEFDINECKDPSNINGGCSQICDNTPGSYHCSCKNGFVMLSNKKDCKDVDECSLKPSICGTAVCKNIPGDFECECPEGYRYNLKSKSCEDIDECSENMCAQLCVNYPGGYTCYCDGKKGFKLAQDQKSCEVVSVCLPLNLDTKYELLYLAEQFAGVVLYLKFRLPEISRFSAEFDFRTYDSEGVILYAESIDHSAWLLIALRGGKIEVQLKNEHTSKITTGGDVINNGLWNMVSVEELEHSISIKIAKEAVMDINKPGPLFKPENGLLETKVYFAGFPRKVESELIKPINPRLDGCIRSWNLMKQGASGIKEIIQEKQNKHCLVTVEKGSYYPGSGIAQFHIDYNNVSSAEGWHVNVTLNIRPSTGTGVMLALVSGNNTVPFAVSLVDSTSEKSQDILLSVENTVIYRIQALSLCSDQQSHLEFRVNRNNLELSTPLKIETISHEDLQRQLAVLDKAMKAKVATYLGGLPDVPFSATPVNAFYNGCMEVNINGVQLDLDEAISKHNDIRAHSCPSVWKKTKNS",binding,binds
